This is one part of the list.

Chains of the proteins cited; added tags and fusions are not shown. Lines headed by an entry give the natural chain unless they say otherwise; changes in a name come on top.
UniProt Q5HYK9: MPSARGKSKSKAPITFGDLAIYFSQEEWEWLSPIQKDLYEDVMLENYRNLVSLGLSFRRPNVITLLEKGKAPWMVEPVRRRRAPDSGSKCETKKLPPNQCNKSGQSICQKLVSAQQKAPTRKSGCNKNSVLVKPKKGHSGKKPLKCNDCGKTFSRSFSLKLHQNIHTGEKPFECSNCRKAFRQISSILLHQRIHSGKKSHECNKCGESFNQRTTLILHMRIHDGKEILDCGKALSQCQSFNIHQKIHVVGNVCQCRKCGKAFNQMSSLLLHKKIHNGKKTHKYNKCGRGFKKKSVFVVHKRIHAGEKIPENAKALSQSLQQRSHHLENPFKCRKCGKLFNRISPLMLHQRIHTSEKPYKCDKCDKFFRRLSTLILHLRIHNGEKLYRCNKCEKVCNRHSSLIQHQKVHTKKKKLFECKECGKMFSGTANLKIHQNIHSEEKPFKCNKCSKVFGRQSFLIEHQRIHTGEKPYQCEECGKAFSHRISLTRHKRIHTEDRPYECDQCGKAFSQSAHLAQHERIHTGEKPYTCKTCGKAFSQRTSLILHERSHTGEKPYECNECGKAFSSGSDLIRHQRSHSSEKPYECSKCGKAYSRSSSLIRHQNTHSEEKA
UniProt Q8NAF0: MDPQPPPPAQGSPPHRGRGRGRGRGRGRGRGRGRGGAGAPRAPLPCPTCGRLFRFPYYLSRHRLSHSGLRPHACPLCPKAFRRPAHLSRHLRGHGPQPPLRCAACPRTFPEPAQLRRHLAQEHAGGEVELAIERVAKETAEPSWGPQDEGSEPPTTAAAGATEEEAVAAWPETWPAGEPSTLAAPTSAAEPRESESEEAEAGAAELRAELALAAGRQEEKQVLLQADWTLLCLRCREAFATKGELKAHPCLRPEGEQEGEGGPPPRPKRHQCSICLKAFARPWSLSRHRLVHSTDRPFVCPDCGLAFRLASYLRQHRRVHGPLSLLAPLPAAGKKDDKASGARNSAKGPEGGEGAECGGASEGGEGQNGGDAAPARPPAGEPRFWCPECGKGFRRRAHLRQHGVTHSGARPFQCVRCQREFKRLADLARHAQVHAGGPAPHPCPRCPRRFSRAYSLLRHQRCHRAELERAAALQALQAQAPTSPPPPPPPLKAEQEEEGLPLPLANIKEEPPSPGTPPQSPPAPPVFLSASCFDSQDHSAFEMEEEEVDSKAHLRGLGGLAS
UniProt Q5T7W0: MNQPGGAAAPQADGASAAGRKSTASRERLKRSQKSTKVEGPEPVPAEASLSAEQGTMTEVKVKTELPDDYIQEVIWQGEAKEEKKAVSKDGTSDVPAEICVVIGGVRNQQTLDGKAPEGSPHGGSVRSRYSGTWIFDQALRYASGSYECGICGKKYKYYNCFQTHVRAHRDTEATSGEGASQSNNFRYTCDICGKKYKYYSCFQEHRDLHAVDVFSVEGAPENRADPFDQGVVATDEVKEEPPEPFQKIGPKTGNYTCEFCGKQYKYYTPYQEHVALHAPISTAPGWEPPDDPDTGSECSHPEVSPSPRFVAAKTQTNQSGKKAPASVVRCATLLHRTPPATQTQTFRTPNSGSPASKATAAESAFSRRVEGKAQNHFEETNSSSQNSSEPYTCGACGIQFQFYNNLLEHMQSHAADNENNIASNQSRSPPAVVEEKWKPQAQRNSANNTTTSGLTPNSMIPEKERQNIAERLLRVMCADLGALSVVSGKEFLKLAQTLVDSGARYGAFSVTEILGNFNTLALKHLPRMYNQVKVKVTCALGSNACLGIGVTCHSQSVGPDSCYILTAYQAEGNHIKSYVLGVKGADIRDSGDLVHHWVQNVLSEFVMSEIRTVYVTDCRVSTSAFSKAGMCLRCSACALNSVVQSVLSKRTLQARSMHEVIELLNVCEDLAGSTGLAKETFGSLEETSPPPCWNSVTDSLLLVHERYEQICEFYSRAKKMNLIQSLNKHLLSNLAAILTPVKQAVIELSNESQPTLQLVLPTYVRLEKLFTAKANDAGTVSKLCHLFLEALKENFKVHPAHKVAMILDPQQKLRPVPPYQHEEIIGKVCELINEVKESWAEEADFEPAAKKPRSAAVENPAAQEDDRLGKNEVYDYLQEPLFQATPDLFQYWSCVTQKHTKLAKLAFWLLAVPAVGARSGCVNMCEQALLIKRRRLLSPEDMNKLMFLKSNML
UniProt Q19AV6: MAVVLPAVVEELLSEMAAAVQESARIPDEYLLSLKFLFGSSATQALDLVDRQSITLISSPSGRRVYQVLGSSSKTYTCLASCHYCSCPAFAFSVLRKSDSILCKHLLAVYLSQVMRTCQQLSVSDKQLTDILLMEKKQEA
UniProt Q9P2E3: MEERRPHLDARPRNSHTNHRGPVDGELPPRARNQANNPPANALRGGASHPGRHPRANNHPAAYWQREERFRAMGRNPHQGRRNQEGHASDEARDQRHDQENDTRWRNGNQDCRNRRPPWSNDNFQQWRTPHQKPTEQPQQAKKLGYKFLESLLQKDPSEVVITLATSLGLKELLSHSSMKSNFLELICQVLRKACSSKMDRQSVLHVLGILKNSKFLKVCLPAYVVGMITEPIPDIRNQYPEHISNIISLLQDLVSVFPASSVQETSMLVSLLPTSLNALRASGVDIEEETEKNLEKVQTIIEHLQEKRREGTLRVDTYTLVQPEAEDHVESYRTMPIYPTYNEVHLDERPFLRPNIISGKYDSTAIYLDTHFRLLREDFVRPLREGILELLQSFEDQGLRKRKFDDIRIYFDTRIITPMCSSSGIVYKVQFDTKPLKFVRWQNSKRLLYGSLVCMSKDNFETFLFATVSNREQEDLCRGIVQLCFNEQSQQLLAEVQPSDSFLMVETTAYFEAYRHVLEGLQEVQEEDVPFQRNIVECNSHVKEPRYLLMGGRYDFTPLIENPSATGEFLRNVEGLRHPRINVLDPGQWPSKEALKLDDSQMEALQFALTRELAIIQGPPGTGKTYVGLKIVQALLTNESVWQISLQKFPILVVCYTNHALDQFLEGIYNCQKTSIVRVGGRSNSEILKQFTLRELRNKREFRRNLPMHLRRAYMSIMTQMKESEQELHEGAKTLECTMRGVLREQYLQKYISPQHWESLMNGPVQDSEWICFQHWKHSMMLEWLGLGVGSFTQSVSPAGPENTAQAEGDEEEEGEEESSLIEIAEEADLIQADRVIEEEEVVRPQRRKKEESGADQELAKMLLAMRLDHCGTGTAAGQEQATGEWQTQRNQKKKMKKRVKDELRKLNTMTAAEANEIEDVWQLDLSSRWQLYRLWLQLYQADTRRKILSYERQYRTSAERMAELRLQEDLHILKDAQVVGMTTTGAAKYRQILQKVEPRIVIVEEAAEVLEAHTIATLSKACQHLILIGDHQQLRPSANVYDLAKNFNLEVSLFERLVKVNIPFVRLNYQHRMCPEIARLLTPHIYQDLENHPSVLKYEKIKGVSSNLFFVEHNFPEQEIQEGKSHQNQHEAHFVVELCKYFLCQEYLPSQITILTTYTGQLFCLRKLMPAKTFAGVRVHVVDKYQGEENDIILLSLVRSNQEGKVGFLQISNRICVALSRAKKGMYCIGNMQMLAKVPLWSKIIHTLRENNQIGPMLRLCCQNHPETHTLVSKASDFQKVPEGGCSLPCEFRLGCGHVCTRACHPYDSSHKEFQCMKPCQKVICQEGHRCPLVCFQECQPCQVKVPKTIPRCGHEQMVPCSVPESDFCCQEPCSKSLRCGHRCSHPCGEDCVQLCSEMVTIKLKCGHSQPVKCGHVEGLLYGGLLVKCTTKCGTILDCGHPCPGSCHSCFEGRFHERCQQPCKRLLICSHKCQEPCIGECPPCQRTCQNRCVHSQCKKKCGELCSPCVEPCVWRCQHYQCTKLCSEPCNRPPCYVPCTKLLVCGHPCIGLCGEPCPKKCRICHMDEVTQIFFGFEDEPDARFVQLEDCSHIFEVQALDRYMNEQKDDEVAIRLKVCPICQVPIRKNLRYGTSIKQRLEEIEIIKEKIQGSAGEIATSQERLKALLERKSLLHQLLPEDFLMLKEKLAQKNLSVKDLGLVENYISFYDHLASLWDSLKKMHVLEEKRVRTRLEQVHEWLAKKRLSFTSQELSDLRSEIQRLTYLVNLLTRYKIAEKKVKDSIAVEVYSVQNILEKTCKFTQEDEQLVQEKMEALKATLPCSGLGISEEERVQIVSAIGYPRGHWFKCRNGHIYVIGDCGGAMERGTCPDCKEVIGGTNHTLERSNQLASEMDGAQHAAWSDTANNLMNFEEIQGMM
UniProt O15015: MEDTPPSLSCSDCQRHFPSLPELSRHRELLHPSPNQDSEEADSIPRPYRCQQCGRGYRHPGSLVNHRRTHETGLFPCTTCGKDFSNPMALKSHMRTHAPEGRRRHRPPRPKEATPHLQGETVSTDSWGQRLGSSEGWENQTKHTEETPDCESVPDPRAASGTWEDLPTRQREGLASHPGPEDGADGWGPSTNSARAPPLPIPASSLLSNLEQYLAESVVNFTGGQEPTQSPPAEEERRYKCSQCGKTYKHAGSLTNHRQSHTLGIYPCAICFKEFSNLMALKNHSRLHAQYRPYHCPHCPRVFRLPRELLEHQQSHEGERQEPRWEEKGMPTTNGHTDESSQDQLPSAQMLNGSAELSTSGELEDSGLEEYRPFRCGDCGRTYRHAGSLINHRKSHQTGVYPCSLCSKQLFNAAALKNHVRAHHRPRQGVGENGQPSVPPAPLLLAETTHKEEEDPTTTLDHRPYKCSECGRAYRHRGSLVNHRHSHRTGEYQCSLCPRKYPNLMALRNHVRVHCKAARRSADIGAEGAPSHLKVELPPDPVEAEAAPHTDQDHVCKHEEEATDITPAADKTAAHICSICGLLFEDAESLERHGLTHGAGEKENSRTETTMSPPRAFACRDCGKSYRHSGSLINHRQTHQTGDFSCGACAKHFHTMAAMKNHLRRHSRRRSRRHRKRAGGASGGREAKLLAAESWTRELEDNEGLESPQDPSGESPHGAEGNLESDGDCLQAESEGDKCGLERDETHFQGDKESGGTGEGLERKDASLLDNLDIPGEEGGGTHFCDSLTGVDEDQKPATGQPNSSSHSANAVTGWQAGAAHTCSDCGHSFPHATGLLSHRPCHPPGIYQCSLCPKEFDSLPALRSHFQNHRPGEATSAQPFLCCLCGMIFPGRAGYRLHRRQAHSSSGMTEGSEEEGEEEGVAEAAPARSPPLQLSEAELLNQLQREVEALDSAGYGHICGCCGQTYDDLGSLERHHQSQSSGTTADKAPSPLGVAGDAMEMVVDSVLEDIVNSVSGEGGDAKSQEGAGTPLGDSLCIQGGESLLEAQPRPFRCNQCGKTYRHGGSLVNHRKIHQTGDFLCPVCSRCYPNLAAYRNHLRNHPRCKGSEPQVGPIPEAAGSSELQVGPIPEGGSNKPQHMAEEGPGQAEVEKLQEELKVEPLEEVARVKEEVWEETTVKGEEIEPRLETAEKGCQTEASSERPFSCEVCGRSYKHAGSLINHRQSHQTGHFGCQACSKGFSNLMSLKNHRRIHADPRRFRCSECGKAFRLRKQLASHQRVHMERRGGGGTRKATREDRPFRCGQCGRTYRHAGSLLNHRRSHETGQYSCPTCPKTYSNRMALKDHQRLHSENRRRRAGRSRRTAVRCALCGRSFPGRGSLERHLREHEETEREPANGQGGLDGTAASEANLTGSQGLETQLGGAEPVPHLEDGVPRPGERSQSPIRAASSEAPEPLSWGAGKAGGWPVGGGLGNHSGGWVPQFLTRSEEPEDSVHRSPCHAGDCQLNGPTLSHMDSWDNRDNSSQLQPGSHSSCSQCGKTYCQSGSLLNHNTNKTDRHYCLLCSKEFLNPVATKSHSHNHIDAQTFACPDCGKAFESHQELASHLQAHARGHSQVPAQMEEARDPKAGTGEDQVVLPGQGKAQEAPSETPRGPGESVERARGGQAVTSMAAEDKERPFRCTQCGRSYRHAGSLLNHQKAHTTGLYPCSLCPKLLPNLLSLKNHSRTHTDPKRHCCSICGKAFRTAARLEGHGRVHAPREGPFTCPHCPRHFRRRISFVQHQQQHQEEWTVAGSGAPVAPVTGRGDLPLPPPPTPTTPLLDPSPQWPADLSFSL
UniProt Q15649: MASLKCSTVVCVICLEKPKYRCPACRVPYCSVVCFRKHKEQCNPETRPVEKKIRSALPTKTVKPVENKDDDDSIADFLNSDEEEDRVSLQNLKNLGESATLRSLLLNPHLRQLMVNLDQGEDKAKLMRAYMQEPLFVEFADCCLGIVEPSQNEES
UniProt Q96NB3: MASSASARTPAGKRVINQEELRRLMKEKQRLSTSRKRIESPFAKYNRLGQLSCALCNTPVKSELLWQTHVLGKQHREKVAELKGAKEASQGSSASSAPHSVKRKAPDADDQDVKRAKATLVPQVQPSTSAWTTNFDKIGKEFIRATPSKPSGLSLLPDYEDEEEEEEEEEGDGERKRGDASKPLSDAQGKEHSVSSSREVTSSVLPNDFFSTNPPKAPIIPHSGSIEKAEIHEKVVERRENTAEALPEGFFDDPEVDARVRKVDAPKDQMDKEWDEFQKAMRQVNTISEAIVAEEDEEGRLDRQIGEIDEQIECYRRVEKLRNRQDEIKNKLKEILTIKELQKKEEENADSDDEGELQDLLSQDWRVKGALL

Compound in the assay: COc1ccc(Cn2ccc3ccc(C(=O)NO)cc32)cc1
Kind of assay: dose-dependent thermal stabilisation call (2D-TPP, DLPTP, 10% FDR) (binary (1 = stabilised)); higher = stabilised by the compound. The conditions noted are these: system: HL-60 intact cells; concentration range 0.04-10 µM.
As to ZNF428 (UniProt Q96B54), the “dose-dependent thermal stabilisation call” value was inactive: 0.

Regarding ZNF638 (UniProt Q14966), the “dose-dependent thermal stabilisation call” value was inactive: 0.

For the target ZWILCH (UniProt Q9H900), the “dose-dependent thermal stabilisation call” value is inactive: 0. With ZWINT (UniProt O95229) the figure was inactive: 0; with ZNHIT1 (UniProt O43257), inactive: 0.

For ZNF451 (UniProt Q9Y4E5), the “dose-dependent thermal stabilisation call” value is inactive: 0. With ZNF598 (UniProt Q86UK7) the figure was inactive: 0. Then ZNF644 (UniProt Q9H582), with inactive: 0; and ZNF326 (UniProt Q5BKZ1), with inactive: 0. With ZNF574 (UniProt Q6ZN55), the “dose-dependent thermal stabilisation call” value is inactive: 0.

Consider ZNF667 (UniProt Q5HYK9), for which the “dose-dependent thermal stabilisation call” value is inactive: 0. As for ZNF853 (UniProt P0CG23), the “dose-dependent thermal stabilisation call” value is inactive: 0. As to ZNF511 (UniProt Q8NB15), the “dose-dependent thermal stabilisation call” value is inactive: 0. Take ZNHIT6 (UniProt Q9NWK9): the “dose-dependent thermal stabilisation call” value is inactive: 0. For ZNF609 (UniProt O15014), the “dose-dependent thermal stabilisation call” value was inactive: 0. Turning to ZNF622 (UniProt Q969S3), the “dose-dependent thermal stabilisation call” value was inactive: 0. In the case of ZNF579 (UniProt Q8NAF0), the “dose-dependent thermal stabilisation call” value is inactive: 0. For ZNF384 (UniProt Q8TF68), the “dose-dependent thermal stabilisation call” value was inactive: 0. ZNF592 (UniProt Q92610): the “dose-dependent thermal stabilisation call” value is inactive: 0.

ZNF618 (UniProt Q5T7W0): the “dose-dependent thermal stabilisation call” value was inactive: 0.

Turning to ZNF740 (UniProt Q8NDX6), the “dose-dependent thermal stabilisation call” value was inactive: 0.

Consider ZNF295 (UniProt Q9ULJ3), for which the “dose-dependent thermal stabilisation call” value is inactive: 0.

Regarding ZSWIM7 (UniProt Q19AV6), the “dose-dependent thermal stabilisation call” value was inactive: 0.

Turning to ZRANB2 (UniProt O95218), the “dose-dependent thermal stabilisation call” value is inactive: 0. Then ZNF787 (UniProt Q6DD87), with inactive: 0; and ZNFX1 (UniProt Q9P2E3), with inactive: 0. For the target ZNF346 (UniProt Q9UL40), the “dose-dependent thermal stabilisation call” value was inactive: 0. Then ZNF706 (UniProt Q9Y5V0), with inactive: 0; and ch-TOG, with inactive: 0.

As for ZNF318 (UniProt Q5VUA4), the “dose-dependent thermal stabilisation call” value is inactive: 0. Take ZNHIT2 (UniProt Q9UHR6): the “dose-dependent thermal stabilisation call” value is inactive: 0. For ZNF646 (UniProt O15015), the “dose-dependent thermal stabilisation call” value is inactive: 0. Take ZW10 (UniProt O43264): the “dose-dependent thermal stabilisation call” value was inactive: 0.

Turning to mTOR (UniProt P42345), the “dose-dependent thermal stabilisation call” value was inactive: 0.

On to ZNHIT3 (UniProt Q15649), for which the “dose-dependent thermal stabilisation call” value is inactive: 0.

Regarding ZNF830 (UniProt Q96NB3), the “dose-dependent thermal stabilisation call” value is inactive: 0.

These data come from the supplement of paper PMC7666118.
